The source of these data is US20240210413.

The exact form of at least one protein or probe is not confirmed. For some assays here: Results from cells or extracts need not show a direct contact. For some assays here: Negatives hold for the conditions tested.

Common to all, as to assay: binding assay
For one data set, the system named is peanut protein extract. Particulars: 3'-thiol (sh) after poly-T tail [3'-end thiol (SH) left out]; SERS intensity close to negative control; protein mixture; protein in an extract; label: gold nanorod; single-stranded DNA; letters built from the parent sequence and the stated change.
The test system of the next data set is nut protein extract. Particulars: 3'-thiol (sh) after poly-T tail [3'-end thiol (SH) left out]; SERS intensity close to negative control; protein mixture; protein in an extract; label: gold nanorod; single-stranded DNA; letters built from the parent sequence and the stated change.
A further data set concerns milk powder protein. The following applies: 3'-thiol (sh) after poly-T tail [3'-end thiol (SH) left out]; SERS intensity close to negative control; protein mixture; protein in an extract; protein details: 10 mg/mL milk powder solution; label: gold nanorod; single-stranded DNA; letters built from the parent sequence and the stated change.
The test system of another data set is fish protein extract. The following applies: 3'-thiol (sh) after poly-T tail [3'-end thiol (SH) left out]; SERS intensity close to negative control; protein mixture; protein in an extract; protein details: whole protein extract (Kaiji kit); label: gold nanorod; single-stranded DNA; letters built from the parent sequence and the stated change.
For another data set, the system named is whole egg powder protein. Particulars: 3'-thiol (sh) after poly-T tail [3'-end thiol (SH) left out]; SERS intensity close to negative control; protein mixture; protein in an extract; protein details: 10 mg/mL whole egg powder solution; label: gold nanorod; single-stranded DNA; letters built from the parent sequence and the stated change.
A further data set relates to wheat gliadin (gluten). Particulars: 3'-thiol (sh) after poly-T tail [3'-end thiol (SH) left out]; SERS gold nanorod dimer assay, 4-MBA signal at 1078 cm-1, 45 min room temperature; detection limit 35.06 ng/mL, quantitation limit 116.87 ng/mL; no Kd given; purified native protein; label: gold nanorod; single-stranded DNA; letters built from the parent sequence and the stated change.

A further data set concerns soybean protein extract. The following applies: 3'-thiol (sh) after poly-T tail [3'-end thiol (SH) left out]; SERS intensity close to negative control; protein mixture; protein in an extract; label: gold nanorod; single-stranded DNA; letters built from the parent sequence and the stated change.
Another data set relates to shrimp protein extract. Particulars: 3'-thiol (sh) after poly-T tail [3'-end thiol (SH) left out]; SERS intensity close to negative control; protein mixture; protein in an extract; protein details: whole protein extract (Kaiji kit); label: gold nanorod; single-stranded DNA; letters built from the parent sequence and the stated change.

As for “CCAGTCTCCCGTTTACCGCGCCTACACATGTCTGAATGCCTTTTTTTTTTTTTTTTTT [gliadin aptamer (Apt)]”, the binding result in the data set on peanut protein extract is reported as “no binding”; with nut protein extract, “no binding”; with milk powder protein, “no binding”; in the data set on fish protein extract, “no binding”; in the data set on whole egg powder protein it was “no binding”; in the data set on wheat gliadin (gluten), “binds”. Also, the binding result in the data set with soybean protein extract and in the data set on shrimp protein extract was “no binding” throughout.
